Test results: patent US10369195B2, “Methods and compositions for preventing and treating damage to the heart” (MandalMed, Inc., priority 2016, dated 2019)
“Also recorded” adds a separate entry of the source.

System: interleukin (IL)-1β
Experiment: ELISA of IL-1β in plasma of rats with ischemia-reperfusion injury
Type: in vivo, rat
Experimental: The levels of the inflammatory cytokines, interleukin (IL)-1β and IL-6, were determined in the plasma of control rats and rats with ischemia-reperfusion injury at 2 days (FIG. 4) and 28 days (FIG. 5) post-injury using ELISA kits according to the instructions of the vendor (Pierce ThermoFisher).
The levels of the inflammatory cytokines, IL-1β and IL-6, were determined in the plasma of sham control rats and rats with ischemia-reperfusion injury at 28 days post-injury (FIG. 5) using ELISA kits as described in Example 2 above.

B1: Gal-3C: N-terminally truncated form of full length galectin-3, lacking the amino-terminal domain but retaining carbohydrate binding ability; 143 carboxy-terminal residues, SEQ ID NO: 3 (protein)
chain: GAPAGPLIVPYNLPLPGGVVPRMLITILGTVKPNANRIALDFQRGNDVAFHFNPRFNENNRRVIVCNTKLDNNWGREERQSVFPFESGKPFKIQVLVEPDHFKVAVNDAHLLQYNHRVKKLNEISKLGISGDIDITSASYTMI
For B1, the “IL-1β plasma level vs MI PBS-only controls” value (2 days post-MI, 600 μg/day, early window) was “statistically significant increase; also recorded: higher”, the “IL-1β plasma level vs sham healthy controls” value (2 days post-injury, 200 and 600 μg/day, early window) was “higher” and the “IL-1β plasma level vs MI PBS controls” value (28 days, early window treated groups) was “not significantly greater”. The “IL-1β expression vs delayed PBS controls” value (day 28, 600 μg/d beginning 4 days post-MI (delayed window)) was “did not affect expression”.
